Results taken from article PMC7758050.
Positions count from the first letter of the chain named. These are yes or no findings as the source states them, for the method shown. In cells and extracts the contact can be indirect. Some binding calls cover weakened binding; strength is not graded here. For some assays here: Sequences can lack the tags named with a protein.

Sequences of proteins named here, by UniProt entry; tags and fusion partners are left off.
UniProt Q92831: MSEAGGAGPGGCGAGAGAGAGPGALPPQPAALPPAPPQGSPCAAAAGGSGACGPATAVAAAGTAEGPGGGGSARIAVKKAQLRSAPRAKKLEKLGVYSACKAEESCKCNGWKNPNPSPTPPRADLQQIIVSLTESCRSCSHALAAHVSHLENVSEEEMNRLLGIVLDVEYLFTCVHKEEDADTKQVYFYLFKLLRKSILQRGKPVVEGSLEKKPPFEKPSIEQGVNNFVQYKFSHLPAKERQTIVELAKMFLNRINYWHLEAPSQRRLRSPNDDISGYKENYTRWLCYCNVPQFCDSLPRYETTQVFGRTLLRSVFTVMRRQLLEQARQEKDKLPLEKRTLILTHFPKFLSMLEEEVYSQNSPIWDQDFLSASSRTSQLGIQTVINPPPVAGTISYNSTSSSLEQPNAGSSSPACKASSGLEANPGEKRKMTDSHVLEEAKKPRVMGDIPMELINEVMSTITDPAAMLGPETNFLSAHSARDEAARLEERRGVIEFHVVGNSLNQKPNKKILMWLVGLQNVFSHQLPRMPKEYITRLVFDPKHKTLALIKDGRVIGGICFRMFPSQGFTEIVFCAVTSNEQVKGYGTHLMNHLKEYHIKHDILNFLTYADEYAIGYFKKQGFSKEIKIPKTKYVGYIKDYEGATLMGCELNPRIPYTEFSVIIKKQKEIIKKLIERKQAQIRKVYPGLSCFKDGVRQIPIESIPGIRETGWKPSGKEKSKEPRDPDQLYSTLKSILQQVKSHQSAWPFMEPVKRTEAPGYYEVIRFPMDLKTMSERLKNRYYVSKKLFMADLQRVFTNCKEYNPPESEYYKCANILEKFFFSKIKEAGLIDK
UniProt Q9Y6Q9: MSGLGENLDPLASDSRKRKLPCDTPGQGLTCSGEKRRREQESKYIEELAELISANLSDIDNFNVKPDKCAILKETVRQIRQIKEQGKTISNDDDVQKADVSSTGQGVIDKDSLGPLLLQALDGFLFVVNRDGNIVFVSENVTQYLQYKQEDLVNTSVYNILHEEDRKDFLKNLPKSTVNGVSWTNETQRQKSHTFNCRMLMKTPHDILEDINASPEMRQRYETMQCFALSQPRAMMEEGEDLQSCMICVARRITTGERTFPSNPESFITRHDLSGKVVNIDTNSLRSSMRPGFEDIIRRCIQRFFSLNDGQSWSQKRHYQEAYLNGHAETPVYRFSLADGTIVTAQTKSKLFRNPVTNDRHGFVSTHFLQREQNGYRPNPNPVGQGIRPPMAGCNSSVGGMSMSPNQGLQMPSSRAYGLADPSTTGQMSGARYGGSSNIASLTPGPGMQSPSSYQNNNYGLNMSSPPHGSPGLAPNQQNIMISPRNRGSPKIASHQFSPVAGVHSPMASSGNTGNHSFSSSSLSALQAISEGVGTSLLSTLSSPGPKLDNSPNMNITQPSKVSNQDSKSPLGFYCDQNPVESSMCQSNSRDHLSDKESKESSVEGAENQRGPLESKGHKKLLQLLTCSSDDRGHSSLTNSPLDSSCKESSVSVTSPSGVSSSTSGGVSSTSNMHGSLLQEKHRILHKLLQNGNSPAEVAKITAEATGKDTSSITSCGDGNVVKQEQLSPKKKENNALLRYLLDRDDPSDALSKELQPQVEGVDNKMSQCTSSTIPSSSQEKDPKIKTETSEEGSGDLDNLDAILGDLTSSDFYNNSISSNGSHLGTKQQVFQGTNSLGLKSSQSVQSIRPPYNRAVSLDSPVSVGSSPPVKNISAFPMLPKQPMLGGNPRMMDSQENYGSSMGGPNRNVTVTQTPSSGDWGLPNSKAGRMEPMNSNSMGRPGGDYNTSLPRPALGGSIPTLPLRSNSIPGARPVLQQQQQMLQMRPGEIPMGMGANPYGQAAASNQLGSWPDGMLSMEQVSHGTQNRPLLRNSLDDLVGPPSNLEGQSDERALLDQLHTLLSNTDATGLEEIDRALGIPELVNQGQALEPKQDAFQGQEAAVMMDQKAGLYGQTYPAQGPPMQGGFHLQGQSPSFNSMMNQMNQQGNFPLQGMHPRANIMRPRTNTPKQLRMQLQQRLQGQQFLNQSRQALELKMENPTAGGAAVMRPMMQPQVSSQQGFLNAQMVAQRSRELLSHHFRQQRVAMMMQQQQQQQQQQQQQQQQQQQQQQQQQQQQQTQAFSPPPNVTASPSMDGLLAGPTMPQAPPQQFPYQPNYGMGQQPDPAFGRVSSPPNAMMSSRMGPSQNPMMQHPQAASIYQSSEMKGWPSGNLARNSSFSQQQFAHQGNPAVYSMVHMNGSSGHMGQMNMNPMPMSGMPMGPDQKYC
UniProt Q9UM11: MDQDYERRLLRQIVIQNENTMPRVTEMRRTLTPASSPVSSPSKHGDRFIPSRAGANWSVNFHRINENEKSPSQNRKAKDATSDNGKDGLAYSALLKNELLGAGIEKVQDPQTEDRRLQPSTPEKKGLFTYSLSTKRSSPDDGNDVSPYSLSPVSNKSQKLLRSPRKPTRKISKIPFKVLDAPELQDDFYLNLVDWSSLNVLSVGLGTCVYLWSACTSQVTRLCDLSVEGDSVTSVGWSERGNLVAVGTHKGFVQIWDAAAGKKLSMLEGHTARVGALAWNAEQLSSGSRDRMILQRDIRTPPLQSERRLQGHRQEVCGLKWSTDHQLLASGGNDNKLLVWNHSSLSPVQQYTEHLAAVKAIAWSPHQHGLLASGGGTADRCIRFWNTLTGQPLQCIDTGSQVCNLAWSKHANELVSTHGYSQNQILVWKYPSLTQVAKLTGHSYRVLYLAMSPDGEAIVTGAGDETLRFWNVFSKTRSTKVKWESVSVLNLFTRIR

Assays:
Assay in all cases: co-IP; transiently transfected HEK-293T treated with proteasome inhibitor (MG-132) before harvest; NETN lysis; IP 2-4 h at 4°C with M2- or Myc-antibody beads (α-HA IP in Fig 4D); washes in NETN with additional 1% Triton X-100; immunoblot
FLAG-PCAF (human) = FLAG-PCAF (human) (UniProt Q92831)
Myc-NCOA3 (human) = Myc-NCOA3 (human) (UniProt Q9Y6Q9)
Myc-TTF2 (human) = target: T1, Myc-TTF2 (human) (UniProt Q9UNY4)
T1 sequence: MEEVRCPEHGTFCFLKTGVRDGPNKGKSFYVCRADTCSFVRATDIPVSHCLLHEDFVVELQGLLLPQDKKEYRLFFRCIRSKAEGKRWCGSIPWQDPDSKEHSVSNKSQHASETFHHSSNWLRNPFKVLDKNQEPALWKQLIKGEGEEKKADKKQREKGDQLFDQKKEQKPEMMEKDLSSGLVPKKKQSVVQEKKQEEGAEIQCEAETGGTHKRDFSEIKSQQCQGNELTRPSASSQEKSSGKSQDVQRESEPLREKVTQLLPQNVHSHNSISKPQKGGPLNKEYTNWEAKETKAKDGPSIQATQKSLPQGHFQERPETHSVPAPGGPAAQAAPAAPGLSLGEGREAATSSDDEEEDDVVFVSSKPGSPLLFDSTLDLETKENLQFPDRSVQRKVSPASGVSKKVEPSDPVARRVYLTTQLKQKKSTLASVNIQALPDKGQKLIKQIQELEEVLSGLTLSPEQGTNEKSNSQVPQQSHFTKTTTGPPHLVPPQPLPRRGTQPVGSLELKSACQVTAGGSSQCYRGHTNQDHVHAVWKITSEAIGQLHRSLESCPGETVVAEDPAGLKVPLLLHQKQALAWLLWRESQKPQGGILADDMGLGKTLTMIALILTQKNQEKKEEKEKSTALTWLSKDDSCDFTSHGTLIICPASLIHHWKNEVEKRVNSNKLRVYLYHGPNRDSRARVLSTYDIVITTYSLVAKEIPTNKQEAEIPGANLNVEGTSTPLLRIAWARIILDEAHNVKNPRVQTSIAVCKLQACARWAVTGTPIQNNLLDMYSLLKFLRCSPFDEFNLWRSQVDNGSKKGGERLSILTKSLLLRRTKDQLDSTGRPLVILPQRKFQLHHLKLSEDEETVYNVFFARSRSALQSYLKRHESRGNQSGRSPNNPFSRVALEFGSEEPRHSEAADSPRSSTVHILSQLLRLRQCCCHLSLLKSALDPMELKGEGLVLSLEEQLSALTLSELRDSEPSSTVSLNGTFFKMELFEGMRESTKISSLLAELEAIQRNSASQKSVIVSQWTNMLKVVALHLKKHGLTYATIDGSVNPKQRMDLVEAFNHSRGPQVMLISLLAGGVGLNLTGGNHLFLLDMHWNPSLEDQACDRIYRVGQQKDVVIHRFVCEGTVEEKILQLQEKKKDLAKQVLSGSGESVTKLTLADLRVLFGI

[1] = target: T2, Myc-UHRF1^KEN:AAA (human) (UniProt Q96T88)
T2 sequence: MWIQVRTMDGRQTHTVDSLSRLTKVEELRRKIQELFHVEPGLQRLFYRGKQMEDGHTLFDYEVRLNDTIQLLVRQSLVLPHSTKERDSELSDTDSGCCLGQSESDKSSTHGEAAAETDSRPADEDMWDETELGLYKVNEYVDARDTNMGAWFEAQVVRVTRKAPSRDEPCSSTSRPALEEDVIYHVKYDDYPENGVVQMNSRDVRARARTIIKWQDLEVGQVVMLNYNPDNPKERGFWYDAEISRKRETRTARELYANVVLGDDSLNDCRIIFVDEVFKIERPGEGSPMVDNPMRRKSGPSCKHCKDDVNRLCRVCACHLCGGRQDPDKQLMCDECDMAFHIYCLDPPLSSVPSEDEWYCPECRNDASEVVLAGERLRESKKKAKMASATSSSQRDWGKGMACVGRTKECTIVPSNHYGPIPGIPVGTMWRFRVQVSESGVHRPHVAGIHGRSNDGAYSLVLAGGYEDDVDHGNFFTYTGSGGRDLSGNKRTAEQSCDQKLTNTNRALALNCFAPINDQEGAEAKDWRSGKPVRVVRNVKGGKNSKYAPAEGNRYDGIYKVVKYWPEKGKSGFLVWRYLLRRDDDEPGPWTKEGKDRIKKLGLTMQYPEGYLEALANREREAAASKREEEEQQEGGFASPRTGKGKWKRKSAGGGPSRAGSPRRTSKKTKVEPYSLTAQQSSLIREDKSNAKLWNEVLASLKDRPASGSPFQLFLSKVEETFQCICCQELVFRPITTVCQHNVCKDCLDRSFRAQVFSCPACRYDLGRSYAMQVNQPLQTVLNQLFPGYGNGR

Myc-UHRF1^WT (human) = target: T3, Myc-UHRF1^WT (human) (UniProt Q96T88)
T3 sequence: T2 sequence with A622K, A623E, A624N

Measured: binding

HA-Cdh1 (from UniProt Q9UM11 1-496)
binds: FLAG-PCAF (human) | Myc-NCOA3 (human) | Myc-TTF2 (human) | [1] | Myc-UHRF1^WT (human)
